Our source for the binding values is article PMC4921468.

Sequences of proteins named here, by UniProt entry; tags and fusion partners are left off.
UniProt P17096: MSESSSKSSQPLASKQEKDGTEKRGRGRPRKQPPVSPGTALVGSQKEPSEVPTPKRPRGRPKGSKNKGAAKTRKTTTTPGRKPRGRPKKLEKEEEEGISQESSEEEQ
UniProt Q16665: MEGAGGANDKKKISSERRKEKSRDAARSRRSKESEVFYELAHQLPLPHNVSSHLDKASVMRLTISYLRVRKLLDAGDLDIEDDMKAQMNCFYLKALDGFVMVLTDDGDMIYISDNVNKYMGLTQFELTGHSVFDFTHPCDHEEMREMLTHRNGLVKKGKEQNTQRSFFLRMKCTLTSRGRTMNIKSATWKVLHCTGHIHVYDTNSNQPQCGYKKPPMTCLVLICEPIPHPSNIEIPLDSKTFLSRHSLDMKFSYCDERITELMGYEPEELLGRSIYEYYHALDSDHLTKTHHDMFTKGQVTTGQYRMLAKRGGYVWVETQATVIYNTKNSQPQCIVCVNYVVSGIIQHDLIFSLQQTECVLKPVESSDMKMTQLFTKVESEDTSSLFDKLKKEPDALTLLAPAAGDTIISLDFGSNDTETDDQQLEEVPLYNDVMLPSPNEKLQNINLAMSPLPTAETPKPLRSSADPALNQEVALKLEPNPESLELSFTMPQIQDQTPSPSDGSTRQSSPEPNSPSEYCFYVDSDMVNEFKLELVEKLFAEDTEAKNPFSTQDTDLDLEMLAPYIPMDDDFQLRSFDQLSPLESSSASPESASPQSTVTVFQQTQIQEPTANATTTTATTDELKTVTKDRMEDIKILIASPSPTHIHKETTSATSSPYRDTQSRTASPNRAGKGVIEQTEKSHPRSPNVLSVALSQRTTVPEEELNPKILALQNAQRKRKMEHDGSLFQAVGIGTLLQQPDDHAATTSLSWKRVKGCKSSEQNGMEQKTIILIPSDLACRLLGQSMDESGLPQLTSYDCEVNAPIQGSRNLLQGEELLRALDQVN

This experiment has as its target HA-HMGA1 (pcDNA3/HA-HMGA1), overexpressed in HEK-293 cells (human) (UniProt P17096). The experiment in a line: co-IP; 200 μg nuclear extract of HEK-293 cells overexpressing HMGA1 (normoxia or hypoxia) mixed overnight with 5 μg anti-HMGA1 antibody, protein A Sepharose 90 min at 4°C, washed twice with PBS, immunoblot with anti-HIF-1α.

Results are given in words; binding and its absence hold for the method and conditions named. In cells and extracts the contact can be indirect. Some entries that bind do so weakly or less than the wild type.

Regarding “hypoxia-inducible factor 1 alpha (HIF-1α), in HEK-293 cells (from UniProt Q16665 1-826)”, the binding entry is on record as “binds”.
